# PubChem BioAssay AID1259254, NCATS – 2017
# Screen: 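Gene knock-downs that lead to re-replication, shown by excess G2 DNA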 (primary screen)
# Cell system: human HCT116 colorectal cancer cells
# Reagents: single siRNA against human genes
# Time to read-out: 3 days
# Detection: 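Imaged Hoechst DNA stain sorts each cell into a cycle phase by DNA amount; per plate, G2 fraction set to 0% for non-targeting and 100% for GMNN siRNA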
# Direction: G2 robust z-score and G2 cells, % of GMNN control: higher = more G2 cells, more excess DNA replication; raw share of cells in G2: higher = larger share of cells with G2 DNA content
# Call rule: 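An siRNA counts as active if its G2 robust z-score lies at least 5 MADs above the screen median; here such calls match roughly 38% of GMNN control or more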
# In all, the deposit lists about 59,000 reagents; this is a random part of them. Over the whole deposit, about 1,550 (2.6%) were called active. 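G2 share is only a proxy for re-replication; each gene was hit by three separate siRNAs, and active genes were retested.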 The raw values are shown without normalisation. Entries without a mark were called inactive. The numbers tell different reagents against one gene apart. No sequences are given here. The record does not give: the amount of reagent.
G2 robust z-score,"G2 cells, % of GMNN control",raw share of cells in G2 (%),Gene,reagent no.
0.13,3.88,5.65,SMIM12,1
-0.128,2.07,3.95,SMIM12,2
-0.971,-3.86,0.69,SMIM12,3
-0.213,1.47,4.11,OR8K3,1
1.04,10.3,6.65,OR8K3,2
3.85,30,12.8,OR8K3,3
1.89,16.3,11.2,CTSK,1
3.32,26.3,14.2,CTSK,2
-0.582,-1.13,3.49,CTSK,3
-0.362,0.419,5.82,SRD5A2,1
0.0327,3.2,5.64,SRD5A2,2
0.138,3.94,5.26,SRD5A2,3
-1.01,-4.17,2.67,KLHL27,1
-0.607,-1.31,5.19,KLHL27,2
-0.482,-0.426,4.89,KLHL27,3
4.05,31.4,18.3,RPL10A,1
3.86,30.1,16.1,RPL10A,2
3.14,25,12.4,RPL10A,3
0.95,9.65,8.65,TPST2,1
0.173,4.18,6.44,TPST2,2
-1.64,-8.54,1.65,TPST2,3
-0.182,1.69,6.15,KLK11,1
0.879,9.15,8.15,KLK11,2
-0.0142,2.87,4.98,KLK11,3
2.48,20.4,12.5,KRAS,1
-1.34,-6.46,3.22,KRAS,2
-0.816,-2.77,3.19,KRAS,3
-1.17,-5.27,3.41,B4GAT1,1
6.83 (active),51,20.3,B4GAT1,2
-0.463,-0.288,6.36,B4GAT1,3
0.492,6.43,8.32,CFAP410,1
0.873,9.11,7.43,CFAP410,2
1.59,14.2,9.07,CFAP410,3
-0.119,2.13,5.06,NELFE,1
2.71,22,14.9,NELFE,2
3.02,24.2,12.4,NELFE,3

5 of these entries, reformatted.
{"Gene": "B4GAT1", "reagent no.": 1, "G2 robust z-score": -1.17, "G2 cells, % of GMNN control": -5.27, "raw share of cells in G2 (%)": 3.41}
{"Gene": "B4GAT1", "reagent no.": 2, "G2 robust z-score": "6.83 (active)", "G2 cells, % of GMNN control": 51, "raw share of cells in G2 (%)": 20.3}
{"Gene": "B4GAT1", "reagent no.": 3, "G2 robust z-score": -0.463, "G2 cells, % of GMNN control": -0.288, "raw share of cells in G2 (%)": 6.36}
{"Gene": "CFAP410", "reagent no.": 1, "G2 robust z-score": 0.492, "G2 cells, % of GMNN control": 6.43, "raw share of cells in G2 (%)": 8.32}
{"Gene": "CFAP410", "reagent no.": 2, "G2 robust z-score": 0.873, "G2 cells, % of GMNN control": 9.11, "raw share of cells in G2 (%)": 7.43}

The list goes on:
G2 robust z-score,"G2 cells, % of GMNN control",raw share of cells in G2 (%),Gene,reagent no.
-1.13,-5.01,3.42,GNA12,1
-0.776,-2.49,4.31,GNA12,2
-0.677,-1.8,3.02,GNA12,3
0.908,9.35,6.95,ANKRD16,1
2.82,22.8,13.9,ANKRD16,2
1.37,12.6,7.35,ANKRD16,3
0.146,3.99,6.39,CR2,1
0.182,4.25,6.54,CR2,2
-0.871,-3.16,3.01,CR2,3
0.356,5.47,5.61,VAX1,1
1.98,16.9,13,VAX1,2
-0.716,-2.07,5.66,VAX1,3
1.64,14.5,9.86,PRAME,1
0.274,4.89,6.06,PRAME,2
0.899,9.29,6.55,PRAME,3
0.832,8.82,8.11,CRMP1,1
-0.777,-2.5,4.08,CRMP1,2
0.541,6.78,6.43,CRMP1,3
0.0255,3.15,5.73,NOL8,1
1.4,12.8,9.45,NOL8,2
2.24,18.7,9.11,NOL8,3
-0.275,1.03,4.25,BOLA1,1
-0.181,1.69,5.19,BOLA1,2
-0.597,-1.24,2.86,BOLA1,3
-0.912,-3.45,2.38,LOC283788,1
-0.477,-0.387,2.89,LOC283788,2
-0.467,-0.319,3.17,LOC283788,3
-0.121,2.12,4.96,NARS2,1
1.22,11.6,9.07,NARS2,2
0.924,9.47,9.37,NARS2,3
1.38,12.7,9.96,NUP205,1
1.63,14.5,10.1,NUP205,2
2,17,9.54,NUP205,3
